Source: patent US6846826B2, “Phenoxypropanol connected with phenylpiperazine and phenoxyalkylamine terminal in its side chain” (priority 2001, dated 2005)

Experiments:
Calcium = assay: Isolated Wistar rat thoracic aorta, antagonism of CaCl2-induced contraction; conditions: vs CaCl2
Method: (§1) After sacrificing Wistar rat of weight between 200˜300 gm, the thoracic aorta was immediately removed and placed in cold Kreb's solution. The fatty connecting tissue surrounding the vessel wall was removed and the thoracic aorta was cut into rings of length 5 mm. The two ends of each ring was pieced and fixed with “Z” shaped platinum wires. Then the thoracic aorta was suspended in 10 ml of tissue bath, aerated with air mixture (95% O2+5% CO2) and maintained at 37° C., where one end was fixed at the bottom of tissue trough, the other end connected to force transducer to record the long contraction via recorder. The sample was given 1 gm of tension and equilibrated for 60 minutes before the following experiments were carried out.
After thoracic aorta had reached equilibrium in the tissue trough, cumulative administration of CaCl2 from […] caused the blood vessel contract to increase tension continuously, and a cumulative dose-response curve was obtained. Then the CaCl2 was thoroughly washed off with Kreb's solution to recover the aorta stability. After the equilibrum was reached again for at east 60 minutes, different concentrations as 10^−8, 10^−7, 10^−6 M of test compounds were added. 30 minutes later, cumulative administration of CaCl2 from 3×10^−5˜10^−2 M were carried out again, and another new cumulative dose-response curve was obtained. Cumulative administration interval was when the previous concentration reached its greatest effect, the next concentration would be immediately given. The time interval was approximately 3˜5 minutes, and the EC50 value could be obtained. From Schild plots, the pA2 of test compounds could be found. Calculation of pA2 value: similar to calculation method on isolated right atrium.

α1 = assay: Isolated Wistar rat thoracic aorta, antagonism of norepinephrine contraction (Schild plot)
Method: as §1
After thoracic aorta had reached equilibrium in the tissue trough, cumulative administration of norepinephrine from 10^−10˜3×10^−4 M caused the blood vessel contract to increase tension continuously, and a cumulative dose-response curve was obtained. Then the norepinephrine was thoroughly washed off with Kreb's solution to recover the aorta stability. After the equilibrum was reached again for at least 60 minutes, different concentrations as 10^−7, 10^−6, 10^−5 M of test compounds were added. 30 minutes later, cumulative administration of norepinephrine from […] were carried out again, and another new cumulative dose-response curve was obtained. Administration of norepinephrine started from concentration 1×10^−10 M, and the concentration was raised 0.5 log each time. Cumulative administration interval was when the previous concentration reached its greatest effect, the next concentration would be immediately given. The time interval was approximately 3˜5 minutes, and the EC50 value could be obtained. From Schild plots, the pA2 of test compounds could be found. Calculation of pA2 value: similar to calculation method on isolated right atrium.

COC(=O)C1=C(C)NC(C)=C(C(=O)OC)C1c1ccc(OCC(O)CNCCOc2ccccc2OC)cc1 (centres unmarked) [Labedipinedilol-B]
Calcium Slope of Schild plot, Aorta (Calcium): (0.78 ± 0.07) | α1 Slope of Schild plot, Aorta (α1): (1.01 ± 0.06)

COC(=O)C1=C(C)NC(C)=C(C(=O)OC)C1c1ccc(OCC(O)CN2CCN(c3ccccc3Cl)CC2)c(OC)c1 (centres unmarked) [Labedipinedilol-C]
Calcium Slope of Schild plot, Aorta (Calcium): (0.64 ± 0.07) | α1 Slope of Schild plot, Aorta (α1): (0.88 ± 0.04)

COC(=O)C1=C(C)NC(C)=C(C(=O)OC)C1c1ccc(OCC(O)CNCCOc2ccccc2C)c(OC)c1 (centres unmarked) [Labedipinedilol-D]
Calcium Slope of Schild plot, Aorta (Calcium): (0.39 ± 0.05) | α1 Slope of Schild plot, Aorta (α1): (0.90 ± 0.07)

COC(=O)C1=C(C)NC(C)=C(C(=O)OC)C1c1ccc(OCC(O)CNCCOc2ccccc2Cl)c(OC)c1 (centres unmarked) [Labedipinedilol-E]
Calcium Slope of Schild plot, Aorta (Calcium): (0.47 ± 0.06) | α1 Slope of Schild plot, Aorta (α1): (0.78 ± 0.07)
